Data as given in US20230095558A1, “IMMUNE CHECKPOINT TIM3-TARGETING BINDING PEPTIDE AND APPLICATION THEREOF” (Sparx Biotech (Jiangsu) Co., Ltd., priority 2020, published 2023).

Experiments:
[1] = molecular target: TIM3 protein (cat #CHI-MF-210T3-0050, Chimerigen); experiment: SPR, TIM3 sensor chip
[2] = molecular target: TIM3 protein (cat #CHI-MF-210T3-0050, Chimerigen); experiment: SPR, TIM3 protein immobilised on the sensor chip

## GLIPLTTMHIGK [P26-12-peptide (targeting TIM3)]
[1]
  binding: binds
[2]
  binding: binds

These are yes or no findings as the source states them, for the method shown. Binding can be weak; no strength is given.
